From paper PMC7548010
These are yes or no findings as the source states them, for the method shown. Binding seen in cells or lysates may run through a third protein. Some results given as binding are weak or reduced against the parent protein; the word gives no strength.

Sequences of proteins named here, by UniProt entry; tags and fusion partners are left off.
UniProt Q93009: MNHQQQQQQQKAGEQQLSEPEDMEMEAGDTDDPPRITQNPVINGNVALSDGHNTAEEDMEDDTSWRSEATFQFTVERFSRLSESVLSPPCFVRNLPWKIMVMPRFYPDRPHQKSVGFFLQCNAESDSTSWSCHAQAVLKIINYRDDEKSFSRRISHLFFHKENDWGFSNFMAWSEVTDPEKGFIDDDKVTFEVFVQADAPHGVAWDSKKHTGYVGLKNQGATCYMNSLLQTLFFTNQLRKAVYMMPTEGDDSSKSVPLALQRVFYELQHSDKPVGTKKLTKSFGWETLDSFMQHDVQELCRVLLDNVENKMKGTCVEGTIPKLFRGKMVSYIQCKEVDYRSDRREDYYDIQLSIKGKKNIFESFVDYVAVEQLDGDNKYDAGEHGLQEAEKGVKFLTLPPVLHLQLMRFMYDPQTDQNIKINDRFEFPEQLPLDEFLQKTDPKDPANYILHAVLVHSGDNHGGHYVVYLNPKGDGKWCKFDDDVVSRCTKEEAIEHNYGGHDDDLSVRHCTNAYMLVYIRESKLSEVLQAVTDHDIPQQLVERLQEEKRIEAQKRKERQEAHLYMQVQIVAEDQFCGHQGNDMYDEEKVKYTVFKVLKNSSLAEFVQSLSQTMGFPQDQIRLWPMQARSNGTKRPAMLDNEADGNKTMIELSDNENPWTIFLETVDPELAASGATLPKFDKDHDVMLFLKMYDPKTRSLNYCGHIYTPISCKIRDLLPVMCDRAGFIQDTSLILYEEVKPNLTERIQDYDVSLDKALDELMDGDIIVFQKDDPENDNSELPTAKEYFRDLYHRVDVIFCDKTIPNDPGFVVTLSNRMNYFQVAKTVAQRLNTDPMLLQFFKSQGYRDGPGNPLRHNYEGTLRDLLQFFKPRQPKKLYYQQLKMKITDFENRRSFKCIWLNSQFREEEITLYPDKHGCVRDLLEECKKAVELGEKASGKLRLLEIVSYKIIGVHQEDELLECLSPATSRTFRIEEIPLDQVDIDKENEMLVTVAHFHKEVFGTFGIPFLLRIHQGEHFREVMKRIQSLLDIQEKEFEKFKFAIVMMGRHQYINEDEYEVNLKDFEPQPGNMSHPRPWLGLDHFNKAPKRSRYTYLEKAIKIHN
UniProt Q14966: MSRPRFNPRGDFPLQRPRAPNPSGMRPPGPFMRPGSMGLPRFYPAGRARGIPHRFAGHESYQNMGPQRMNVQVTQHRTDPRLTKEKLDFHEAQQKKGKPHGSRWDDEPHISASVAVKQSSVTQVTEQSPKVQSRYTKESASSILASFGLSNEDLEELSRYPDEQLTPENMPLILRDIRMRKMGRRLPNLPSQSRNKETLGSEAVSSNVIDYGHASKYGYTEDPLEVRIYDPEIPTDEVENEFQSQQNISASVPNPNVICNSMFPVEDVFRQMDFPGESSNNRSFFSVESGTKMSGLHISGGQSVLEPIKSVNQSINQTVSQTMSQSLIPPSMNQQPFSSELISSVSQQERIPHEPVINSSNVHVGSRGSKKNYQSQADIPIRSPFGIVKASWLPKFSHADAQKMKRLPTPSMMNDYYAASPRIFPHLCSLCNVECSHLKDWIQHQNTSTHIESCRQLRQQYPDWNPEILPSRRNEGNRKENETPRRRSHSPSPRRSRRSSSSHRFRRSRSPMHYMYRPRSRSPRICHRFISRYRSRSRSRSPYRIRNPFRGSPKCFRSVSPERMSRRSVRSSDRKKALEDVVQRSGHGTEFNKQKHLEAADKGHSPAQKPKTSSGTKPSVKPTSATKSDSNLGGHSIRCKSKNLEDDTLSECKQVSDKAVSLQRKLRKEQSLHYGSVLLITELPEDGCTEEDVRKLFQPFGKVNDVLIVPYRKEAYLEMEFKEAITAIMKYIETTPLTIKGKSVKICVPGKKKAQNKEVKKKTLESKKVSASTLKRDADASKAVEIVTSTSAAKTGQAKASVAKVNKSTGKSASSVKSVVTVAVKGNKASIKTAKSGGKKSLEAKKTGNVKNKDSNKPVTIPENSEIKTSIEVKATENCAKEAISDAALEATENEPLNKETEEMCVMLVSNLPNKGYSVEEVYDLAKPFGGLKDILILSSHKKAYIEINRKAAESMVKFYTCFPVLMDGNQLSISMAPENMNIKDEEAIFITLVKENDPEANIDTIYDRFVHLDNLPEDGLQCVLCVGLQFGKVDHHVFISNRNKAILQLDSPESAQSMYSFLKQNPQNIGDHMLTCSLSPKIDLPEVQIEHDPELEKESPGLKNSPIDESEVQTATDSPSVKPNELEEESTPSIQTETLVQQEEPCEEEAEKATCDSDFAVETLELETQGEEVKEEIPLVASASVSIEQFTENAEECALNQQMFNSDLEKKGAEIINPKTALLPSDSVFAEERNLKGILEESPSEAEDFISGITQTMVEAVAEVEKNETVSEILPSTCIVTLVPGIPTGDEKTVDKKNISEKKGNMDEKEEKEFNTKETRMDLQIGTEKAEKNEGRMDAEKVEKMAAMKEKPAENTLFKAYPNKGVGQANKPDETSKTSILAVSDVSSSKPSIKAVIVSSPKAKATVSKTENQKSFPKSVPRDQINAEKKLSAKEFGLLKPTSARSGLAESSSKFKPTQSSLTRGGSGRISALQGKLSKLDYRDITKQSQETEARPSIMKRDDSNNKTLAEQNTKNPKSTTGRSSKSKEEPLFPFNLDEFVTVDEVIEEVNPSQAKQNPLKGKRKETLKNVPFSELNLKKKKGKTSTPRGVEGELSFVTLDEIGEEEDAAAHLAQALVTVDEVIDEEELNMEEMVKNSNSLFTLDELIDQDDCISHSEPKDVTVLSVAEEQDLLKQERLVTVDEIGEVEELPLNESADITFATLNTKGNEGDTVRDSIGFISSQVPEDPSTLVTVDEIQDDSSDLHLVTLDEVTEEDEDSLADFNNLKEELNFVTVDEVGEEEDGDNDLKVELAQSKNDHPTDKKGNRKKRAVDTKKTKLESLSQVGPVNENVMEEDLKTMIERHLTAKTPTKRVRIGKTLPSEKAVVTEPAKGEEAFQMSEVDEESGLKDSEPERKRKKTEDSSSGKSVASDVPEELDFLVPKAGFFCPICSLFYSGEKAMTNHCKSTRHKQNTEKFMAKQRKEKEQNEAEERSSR
UniProt P16220: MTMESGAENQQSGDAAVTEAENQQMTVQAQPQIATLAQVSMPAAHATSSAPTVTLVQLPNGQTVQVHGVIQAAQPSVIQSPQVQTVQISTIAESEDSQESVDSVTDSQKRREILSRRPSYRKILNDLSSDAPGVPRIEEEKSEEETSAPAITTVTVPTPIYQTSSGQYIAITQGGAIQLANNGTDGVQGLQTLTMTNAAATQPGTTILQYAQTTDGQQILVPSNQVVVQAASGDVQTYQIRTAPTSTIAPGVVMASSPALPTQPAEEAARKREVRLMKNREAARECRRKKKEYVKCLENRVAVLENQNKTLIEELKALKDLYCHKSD

Legend:
FLAG-USP7 full length = FLAG-USP7 full length (UniProt Q93009); assay: co-IP; Flag-USP7 or Flag-tagged truncated mutants (TRAF, CD, HUBL) transfected into SK-Hep1 cells; immunoprecipitation with flag antibody, immunoblotting for the endogenous partner
[1] = molecular target: Ubiquitin-specific peptidase 7 (USP7) (human (endogenous in SK-Hep1 and Huh-7)) (UniProt Q93009); assay: co-IP; endogenous proteins, Huh-7 cells (Supplementary Fig. S1D); immunoprecipitation and immunoblotting
[2] = molecular target: T1, full-length SREBP1C (sterol regulatory element binding protein) (human (endogenous in SK-Hep1)) (UniProt P36956); assay: co-IP; endogenous proteins, SK-Hep1 cells lysed in RIPA lysis buffer with protease inhibitors; immunoprecipitation with primary antibody and protein A/G agarose, immunoblotting
T1 sequence: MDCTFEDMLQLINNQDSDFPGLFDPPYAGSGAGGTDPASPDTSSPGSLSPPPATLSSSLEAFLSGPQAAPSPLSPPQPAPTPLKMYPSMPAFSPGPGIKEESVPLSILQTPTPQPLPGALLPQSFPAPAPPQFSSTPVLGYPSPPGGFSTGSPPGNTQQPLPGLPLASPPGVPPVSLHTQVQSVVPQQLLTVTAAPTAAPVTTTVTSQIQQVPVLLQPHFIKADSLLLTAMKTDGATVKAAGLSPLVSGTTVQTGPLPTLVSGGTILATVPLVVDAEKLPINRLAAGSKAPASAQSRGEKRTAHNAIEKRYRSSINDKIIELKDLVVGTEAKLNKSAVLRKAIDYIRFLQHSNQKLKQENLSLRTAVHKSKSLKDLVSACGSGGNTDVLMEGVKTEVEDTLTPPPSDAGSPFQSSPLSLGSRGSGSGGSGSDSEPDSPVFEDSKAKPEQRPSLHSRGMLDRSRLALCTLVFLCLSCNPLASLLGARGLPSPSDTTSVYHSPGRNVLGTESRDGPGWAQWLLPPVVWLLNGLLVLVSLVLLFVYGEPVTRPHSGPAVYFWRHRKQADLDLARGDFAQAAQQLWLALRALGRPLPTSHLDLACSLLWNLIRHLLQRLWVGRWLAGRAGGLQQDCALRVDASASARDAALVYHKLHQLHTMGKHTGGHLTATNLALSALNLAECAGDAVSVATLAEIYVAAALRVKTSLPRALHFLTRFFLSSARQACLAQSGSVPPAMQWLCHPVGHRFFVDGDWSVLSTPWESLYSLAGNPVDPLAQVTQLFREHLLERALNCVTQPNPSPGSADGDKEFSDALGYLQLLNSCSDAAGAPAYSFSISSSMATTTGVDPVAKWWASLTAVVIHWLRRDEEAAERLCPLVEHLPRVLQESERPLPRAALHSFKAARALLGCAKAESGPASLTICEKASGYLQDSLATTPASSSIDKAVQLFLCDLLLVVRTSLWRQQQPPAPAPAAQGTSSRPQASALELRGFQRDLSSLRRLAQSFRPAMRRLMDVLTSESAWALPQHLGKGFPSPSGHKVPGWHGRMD

[3] = molecular target: Ubiquitin-specific peptidase 7 (USP7) (human (endogenous in SK-Hep1 and Huh-7)) (UniProt Q93009); assay: as above
[4] = molecular target: Zinc finger protein 638 (ZNF638) (human (endogenous in SK-Hep1 and Huh-7)) (UniProt Q14966); assay: co-IP; endogenous proteins, Huh-7 cells (Supplementary Fig. S1D); immunoprecipitation and immunoblotting
[5] = molecular target: Zinc finger protein 638 (ZNF638) (human (endogenous in SK-Hep1 and Huh-7)) (UniProt Q14966); assay: co-IP; endogenous proteins, SK-Hep1 cells lysed in RIPA lysis buffer with protease inhibitors; immunoprecipitation with primary antibody and protein A/G agarose, immunoblotting

binding (FLAG-USP7 full length) | binding [1] | binding [2] | binding [3] | binding [4] | binding [5] | Substance
binds | binds | binds | binds |  |  | Zinc finger protein 638 (ZNF638) (from UniProt Q14966 1-1978)
 |  |  | binds |  |  | cAMP responsive element binding protein (CREB) (from UniProt P16220 1-327)
 |  | binds |  | binds | binds | Ubiquitin-specific peptidase 7 (USP7) (from UniProt Q93009 1-1102) (enzyme)
